Source: PubChem BioAssay AID652272 (Drosophila RNAi Screening Center, 2013)
In all, the deposit lists about 21,000 reagents; shown is a random part of those with a known target gene and a result. Of all reagents, 503 (2.4%) are marked active. 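Raw plate light values, not normalised; calls rest on replicate z-scores that were not deposited; hits include reporter decreases as well as increases.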 Unmarked entries are inactive. The numbers tell different reagents against one gene apart. A plus sign joins genes that one reagent is predicted to hit. Not stated in the record: the amount of reagent, the time to read-out.

Assay: 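Genes whose knock-down decreases or increases Hedgehog reporter output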 (primary screen)
Cell system: Drosophila clone 8 (Cl8) cells
Knock-down reagent: long dsRNA against Drosophila genes
Measured: 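Firefly light from a Hedgehog-responsive ptc promoter reporter and Renilla reference light, both read on a plate reader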
Direction: firefly Hh reporter signal: higher = more ptc reporter light; Renilla reference signal: higher = more Renilla control light
Hit rule: 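Called a hit if the two-replicate mean z-score lies below -2 or above +3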
Meaning of the calls: active = hit: reporter lowered or raised; inactive = not a hit

gene knocked down | reagent no. | firefly Hh reporter signal, replicate 1 | firefly Hh reporter signal, replicate 2 | firefly Hh reporter signal, replicate 3 | Renilla reference signal, replicate 1 | Renilla reference signal, replicate 2
MICAL-like | 1 | 96300 | 63560 | – | 4115 | 2260
sky | 1 | 92058 | 97040 | – | 4072 | 3780
sky | 2 | 67323 | 52617 | – | 3082 | 2504
sky | 3 | 1.06e5 | 42195 | – | 2859 | 4243
NijA | 1 | 51522 | 40550 | 51382 | 3584 | 3890
l(2)k09022 | 1 | 73688 | 68291 | – | 3864 | 3733
Rad51D | 1 | 89517 | 52620 | – | 2024 | 4711
spdi | 1 | 1.37e5 | 94210 | – | 2976 | 2624
spdi | 2 | 83792 | 1.66e5 | – | 3181 | 6384
CG9018 | 1 | 95287 | 36525 | – | 3001 | 3382
aust | 1 | 68400 | 40580 | – | 1830 | 3815
HtrA2 | 1 | 77050 | 92386 | – | 2800 | 2442
Ube4A | 1 | 67985 | 52832 | – | 3281 | 2036
Mrm2 | 1 | 5.90e5 | 1.00e5 | – | 28480 | 2874
beat-VII | 1 | 55852 | 2.48e5 | – | 15040 | 6685
beat-VII | 2 | 86386 | 1.07e5 | – | 2422 | 3792
beat-VII | 3 | 1.05e5 | 1.35e5 | – | 3303 | 4112
CG3739 | 1 | 5.58e5 | 77698 | – | 28288 | 1882
CG14191 | 1 | 1.01e5 | 2.92e5 | – | 1536 | 13098
Or65a | 1 | 93184 | 1.70e5 | – | 2889 | 7600
PIP5K59B | 1 | 89472 | 63457 | – | 3204 | 2669
PIP5K59B | 2 | 99671 | 77804 | – | 2259 | 6268
Dera | 1 | 1.66e5 | 1.14e5 | – | 7443 | 4535
CG9399 | 1 | 1.23e5 | 1.21e5 | – | 3916 | 3129
CG14160 | 1 | 26038 | 42464 | 42993 | 4032 | 2541
alrm | 1 | 4.95e5 | 61763 | – | 26957 | 1170
CG3604 | 1 | 1.35e5 | 39755 | – | 3520 | 4825
CG34251 | 1 | 3.46e5 | – | – | 7312 | –
CG34251 | 2 | 2.73e5 | – | – | 6791 | –
Liprin-beta | 1 | 45489 | 12400 | 32714 | 1686 | 2416
ND-51L1 | 1 | 77787 | 42520 | – | 2003 | 2951
gpp | 1 | 32966 | 49993 | – | 962 | 1948
gpp | 2 | 49897 | 71537 | – | 1747 | 2125
CG43066 | 1 | 79456 | 6.31e5 | 74310 | 2163 | 32476
CG12480 | 1 | 1.06e5 | 6.86e5 | 4.06e5 | 2502 | 2784
CG3651 | 1 | 54966 | 83064 | – | 1509 | 6864
gsb | 1 | 78361 | 69523 | – | 1555 | 5457
CG5235 | 1 | 1.38e5 | – | – | 6266 | 3915
Mst85C | 1 | 80732 | 98352 | – | 2096 | 3217
Fpgs1 | 1 | 1.04e5 | 2.29e5 | – | 3328 | 7744
CG5281 | 1 | 66219 | 1.18e5 | – | 1981 | 2544
CG12951 | 1 | 89289 | 1.00e5 | – | 2009 | 2848
Arr2 | 1 | 50757 | 54912 | – | 2861 | 3111
RpS15Ab + RpS15Aa | 1 | 35226 (active) | 15992 | – | 1488 | 2073
RpS15Ab + RpS15Aa | 2 | 24640 (active) | 1.02e5 | – | 1751 | 7147
CG32111 (retired record) | 1 | 2.76e5 | – | – | 6233 | –
Rack1 | 1 | 1.17e5 | 40759 | – | 3461 | 5223
galene | 1 | 61558 | 35387 | – | 2112 | 2738
galene | 2 | 1.07e5 | 59184 | – | 3667 | 4961
Ccdc58 | 1 | 99584 | 68128 | – | 3921 | 2733
muc | 1 | 1.67e5 | 80561 | – | 4267 | 7508
St1 | 1 | 1.10e5 | 84135 | – | 4240 | 3368
CG43795 + SkpF | 1 | 76716 | 49056 | – | 1896 | 4108
CG4730 | 1 | 5.19e5 | 1.40e5 | – | 26625 | 4369
RhoGAP5A | 1 | 1.13e5 | 84699 | – | 2682 | 2180
Rab8 | 1 | 1.14e5 | 88377 | – | 4193 | 3859
NKAIN | 1 | 71218 | 1.21e5 | – | 2955 | 4313
mei-S332 | 1 | 63811 | 71158 | – | 2762 | 2999
Su(H) | 1 | 71473 | 61387 | – | 2282 | 5527
Rel | 1 | 1.18e5 | 75133 | – | 4803 | 2923
insc | 1 | 1.30e5 | 55408 | – | 3357 | 5757
pirk | 1 | 87350 | 64898 | – | 2393 | 5843
saturn | 1 | 2.64e5 | – | – | 6669 | –
cmet | 1 | 1.30e5 | 69402 | – | 3367 | 5856
CG2120 | 1 | 69184 | 2.60e5 | – | 2163 | 8867
spdo | 1 | 4.60e5 | 2.00e5 | – | 21580 | 3040
Ant2 | 1 | 77808 | 85164 | – | 1930 | 2189
CG5096 | 1 | 68757 | 88672 | – | 1894 | 6240
Ssu72 | 1 | 78075 | 2.53e5 | – | 3432 | 12779
CG14253 | 1 | 80508 | 77937 | – | 2744 | 2080
E(spl)malpha-BFM | 1 | 4.47e5 | 73144 | – | 24581 | 2016
Evi5 | 1 | 63120 | 2.97e5 | – | 2576 | 10069
Gpa2 | 1 | 55745 | 1.43e5 | – | 1068 | 6717

Targets listed so far whose gene name starts with N or n:
gene knocked down | reagent no. | firefly Hh reporter signal, replicate 1 | firefly Hh reporter signal, replicate 2 | firefly Hh reporter signal, replicate 3 | Renilla reference signal, replicate 1 | Renilla reference signal, replicate 2
NijA | 1 | 51522 | 40550 | 51382 | 3584 | 3890
ND-51L1 | 1 | 77787 | 42520 | – | 2003 | 2951
NKAIN | 1 | 71218 | 1.21e5 | – | 2955 | 4313
